Results are given in words; binding and its absence hold for the method and conditions named. Binding seen in cells or lysates may run through a third protein. Some results given as binding are weak or reduced against the parent protein; the word gives no strength. For part of these data: Tags and fused reporters may be left off the sequences shown.
How the values were obtained:
[1] = molecular target: T1, FLAG-tagged CNNM3 (human) (UniProt Q8NE01); assay: co-IP; overexpressed CNNM3, ARL15 and RPN1 (Supp. Fig. 5); tags, cells and which protein was precipitated not told
T1 sequence: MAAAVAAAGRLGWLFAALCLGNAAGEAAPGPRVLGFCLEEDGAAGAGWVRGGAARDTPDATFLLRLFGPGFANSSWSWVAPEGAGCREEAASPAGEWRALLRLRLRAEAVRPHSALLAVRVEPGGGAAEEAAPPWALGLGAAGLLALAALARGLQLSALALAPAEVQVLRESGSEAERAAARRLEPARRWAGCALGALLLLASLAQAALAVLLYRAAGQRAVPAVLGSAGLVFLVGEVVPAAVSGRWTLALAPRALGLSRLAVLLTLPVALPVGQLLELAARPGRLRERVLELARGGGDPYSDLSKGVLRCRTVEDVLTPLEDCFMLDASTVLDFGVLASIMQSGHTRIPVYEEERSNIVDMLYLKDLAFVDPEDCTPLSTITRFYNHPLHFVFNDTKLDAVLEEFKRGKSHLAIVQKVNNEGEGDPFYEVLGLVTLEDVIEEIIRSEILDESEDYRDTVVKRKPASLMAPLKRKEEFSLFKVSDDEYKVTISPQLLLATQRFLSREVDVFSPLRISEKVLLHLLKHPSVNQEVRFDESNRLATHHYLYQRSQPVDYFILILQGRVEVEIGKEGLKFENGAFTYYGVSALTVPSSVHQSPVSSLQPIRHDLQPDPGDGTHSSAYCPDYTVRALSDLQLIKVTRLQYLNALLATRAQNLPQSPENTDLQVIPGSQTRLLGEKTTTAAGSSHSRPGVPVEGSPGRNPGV

Protein sequences, listed by entry. Tags and fused reporters are not part of them.
UniProt Q9NRU3: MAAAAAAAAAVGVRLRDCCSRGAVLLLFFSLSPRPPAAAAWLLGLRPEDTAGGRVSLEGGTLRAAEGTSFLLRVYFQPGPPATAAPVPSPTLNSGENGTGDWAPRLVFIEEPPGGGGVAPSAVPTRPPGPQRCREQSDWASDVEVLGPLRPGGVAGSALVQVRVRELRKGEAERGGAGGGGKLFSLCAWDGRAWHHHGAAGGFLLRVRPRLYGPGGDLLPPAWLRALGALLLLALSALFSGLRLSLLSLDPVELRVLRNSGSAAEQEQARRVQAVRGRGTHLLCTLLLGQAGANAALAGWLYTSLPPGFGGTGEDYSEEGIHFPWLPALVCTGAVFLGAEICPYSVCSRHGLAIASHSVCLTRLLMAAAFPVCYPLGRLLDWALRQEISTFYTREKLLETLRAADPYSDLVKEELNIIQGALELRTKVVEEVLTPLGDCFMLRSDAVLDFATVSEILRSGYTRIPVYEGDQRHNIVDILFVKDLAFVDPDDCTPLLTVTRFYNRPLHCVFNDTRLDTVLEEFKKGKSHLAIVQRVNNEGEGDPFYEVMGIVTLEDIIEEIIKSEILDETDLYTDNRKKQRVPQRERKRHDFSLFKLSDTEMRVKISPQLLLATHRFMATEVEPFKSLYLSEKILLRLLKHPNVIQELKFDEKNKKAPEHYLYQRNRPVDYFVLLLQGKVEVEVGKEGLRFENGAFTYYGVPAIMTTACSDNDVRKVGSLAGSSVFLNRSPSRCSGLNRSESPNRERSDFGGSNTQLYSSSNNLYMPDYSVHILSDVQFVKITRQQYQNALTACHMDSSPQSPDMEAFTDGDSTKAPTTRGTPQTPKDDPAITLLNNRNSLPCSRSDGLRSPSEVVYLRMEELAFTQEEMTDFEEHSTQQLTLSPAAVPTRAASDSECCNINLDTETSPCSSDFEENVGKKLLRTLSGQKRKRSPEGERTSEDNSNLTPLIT

[2] = molecular target: FLAG-tagged CNNM1 (human) (UniProt Q9NRU3); assay: co-IP; anti-FLAG M2 agarose precipitates overexpressed FLAG-tagged CNNM1-4 from total cell lysate, 2 h at 4 °C; for CNNM3 also lysis buffer with 1 mM Mg2+ or without Mg2+ (Supp. Fig. 2B, constructs not told)
[3] = molecular target: T2, FLAG-tagged CNNM2 (human) (UniProt Q9H8M5); assay: as above
T2 sequence: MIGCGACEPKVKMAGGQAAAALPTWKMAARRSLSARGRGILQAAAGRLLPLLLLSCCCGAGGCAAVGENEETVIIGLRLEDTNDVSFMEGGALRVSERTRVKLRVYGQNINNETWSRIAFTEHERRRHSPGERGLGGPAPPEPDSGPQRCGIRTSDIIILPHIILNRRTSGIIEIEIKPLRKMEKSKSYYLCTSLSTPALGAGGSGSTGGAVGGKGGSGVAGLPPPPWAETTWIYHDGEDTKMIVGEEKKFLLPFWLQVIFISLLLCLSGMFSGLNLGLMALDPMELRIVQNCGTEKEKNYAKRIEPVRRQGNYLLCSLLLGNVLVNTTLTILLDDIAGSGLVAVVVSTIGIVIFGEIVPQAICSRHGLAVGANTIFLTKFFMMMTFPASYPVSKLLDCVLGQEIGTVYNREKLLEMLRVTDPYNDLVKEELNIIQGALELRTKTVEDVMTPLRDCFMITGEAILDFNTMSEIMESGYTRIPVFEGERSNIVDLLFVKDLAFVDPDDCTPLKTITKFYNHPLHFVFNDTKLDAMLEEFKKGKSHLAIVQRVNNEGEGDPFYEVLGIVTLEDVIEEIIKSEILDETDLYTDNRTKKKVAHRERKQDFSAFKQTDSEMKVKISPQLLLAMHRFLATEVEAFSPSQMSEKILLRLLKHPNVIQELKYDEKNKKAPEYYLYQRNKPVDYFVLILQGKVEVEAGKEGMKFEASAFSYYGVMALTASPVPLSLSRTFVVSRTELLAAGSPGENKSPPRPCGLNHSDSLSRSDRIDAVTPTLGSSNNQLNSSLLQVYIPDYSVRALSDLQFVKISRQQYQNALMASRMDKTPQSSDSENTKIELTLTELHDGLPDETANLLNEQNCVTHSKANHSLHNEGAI

[4] = molecular target: T1, FLAG-tagged CNNM3 (human); assay: as above
[5] = molecular target: T3, FLAG-tagged CNNM4 (human) (UniProt Q6P4Q7); assay: as above
T3 sequence: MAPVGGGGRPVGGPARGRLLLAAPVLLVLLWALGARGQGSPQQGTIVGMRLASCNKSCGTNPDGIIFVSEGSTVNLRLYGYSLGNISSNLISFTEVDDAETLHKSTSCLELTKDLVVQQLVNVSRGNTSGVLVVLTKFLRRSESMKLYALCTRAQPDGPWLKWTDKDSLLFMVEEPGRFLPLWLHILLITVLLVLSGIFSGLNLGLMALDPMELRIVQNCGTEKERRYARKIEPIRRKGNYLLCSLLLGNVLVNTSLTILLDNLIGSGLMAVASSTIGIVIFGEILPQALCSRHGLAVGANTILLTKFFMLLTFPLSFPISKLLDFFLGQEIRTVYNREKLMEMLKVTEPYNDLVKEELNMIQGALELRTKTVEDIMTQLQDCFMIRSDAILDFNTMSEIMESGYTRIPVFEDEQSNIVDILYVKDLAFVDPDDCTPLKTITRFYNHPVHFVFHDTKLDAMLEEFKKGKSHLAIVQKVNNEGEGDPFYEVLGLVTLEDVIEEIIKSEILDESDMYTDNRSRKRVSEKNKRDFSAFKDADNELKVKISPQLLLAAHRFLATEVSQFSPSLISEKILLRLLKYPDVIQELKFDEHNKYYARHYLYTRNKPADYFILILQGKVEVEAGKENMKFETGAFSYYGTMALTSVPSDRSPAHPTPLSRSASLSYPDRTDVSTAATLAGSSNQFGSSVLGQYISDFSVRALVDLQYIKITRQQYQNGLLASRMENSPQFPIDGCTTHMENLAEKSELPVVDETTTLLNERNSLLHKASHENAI

Measured: binding

B1: overexpressed RPN1 (protein, UniProt P04843 24-607)
chain: ASSEAPPLINEDVKRTVDLSSHLAKVTAEVVLAHLGGGSTSRATSFLLALEPELEARLAHLGVQVKGEDEEENNLEVRETKIKGKSGRFFTVKLPVALDPGAKISVIVETVYTHVLHPYPTQITQSEKQFVVFEGNHYFYSPYPTKTQTMRVKLASRNVESYTKLGNPTRSEDLLDYGPFRDVPAYSQDTFKVHYENNSPFLTITSMTRVIEVSHWGNIAVEENVDLKHTGAVLKGPFSRYDYQRQPDSGISSIRSFKTILPAAAQDVYYRDEIGNVSTSHLLILDDSVEMEIRPRFPLFGGWKTHYIVGYNLPSYEYLYNLGDQYALKMRFVDHVFDEQVIDSLTVKIILPEGAKNIEIDSPYEISRAPDELHYTYLDTFGRPVIVAYKKNLVEQHIQDIVVHYTFNKVLMLQEPLLVVAAFYILFFTVIIYVRLDFSITKDPAAEARMKVACITEQVLTLVNKRIGLYRHFDETVNRYKQSRDISTLNSGKKSLETEHKALTSEIALLQSRLKTEGSDLCDRVSEMQKLDAQVKELVLKSAVEAERLVAGKLKKDTYIENEKLISGKRQELVTKIDHILDAL
binds: [1]

B2: PRL-1 (endogenous) (protein, UniProt Q93096 1-173)
chain: MARMNRPAPVEVTYKNMRFLITHNPTNATLNKFIEELKKYGVTTIVRVCEATYDTTLVEKEGIHVLDWPFDDGAPPSNQIVDDWLSLVKIKFREEPGCCIAVHCVAGLGRAPVLVALALIEGGMKYEDAVQFIRQKRRGAFNSKQLLYLEKYRPKMRLRFKDSNGHRNNCCIQ
not listed: [1]
binds: all other assays above

B3: PRL-2 (endogenous) (protein, UniProt Q12974 1-167)
chain: MNRPAPVEISYENMRFLITHNPTNATLNKFTEELKKYGVTTLVRVCDATYDKAPVEKEGIHVLDWPFDDGAPPPNQIVDDWLNLLKTKFREEPGCCVAVHCVAGLGRAPVLVALALIECGMKYEDAVQFIRQKRRGAFNSKQLLYLEKYRPKMRLRFRDTNGHCCVQ
not listed: [1]
binds: all other assays above

Reference: PMC8257531
